Measured values published in patent EP0980526B1, “INHIBITORS OF NUCLEAR PROTEIN/NUCLEAR RECEPTOR INTERACTION” (IMPERIAL CANCER RESEARCH TECHNOLOGY LIMITED, priority 1997, dated 1998).
Not every detail of the peptide structures is certain; ends, links or a residue may be inferred. No end group written: not given here.

Target: T1, binding of wild type SRC1a to GST-AF2 (Mus musculus, UniProt P19785)
T1 construct: made in house; host or cells: bacteria (GST fusion); SRC1a by in vitro translation
T1 sequence (P19785 313-599): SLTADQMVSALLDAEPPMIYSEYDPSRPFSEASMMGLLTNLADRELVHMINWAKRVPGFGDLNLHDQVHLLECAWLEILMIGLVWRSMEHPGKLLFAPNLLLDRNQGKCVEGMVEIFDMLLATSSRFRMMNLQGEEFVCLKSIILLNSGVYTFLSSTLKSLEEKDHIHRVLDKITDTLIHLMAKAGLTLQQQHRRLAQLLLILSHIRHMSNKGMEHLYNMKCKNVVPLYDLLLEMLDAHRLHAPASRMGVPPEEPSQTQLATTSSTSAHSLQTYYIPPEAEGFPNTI
Assay: In vitro peptide inhibition assay (GST pulldown competition)
Details: increasing peptide 2.5, 5, 12.5 and 25 µM; in the presence of ligand (10^-6M E2); Fig. 2b

Sequence | competition of the binding of wild type SRC1a to GST-AF2
PQAQQKSLLQQAAT [P2, reference compound] | did not compete
PQAQQKSLLQQLLT [P1, PQAQQKSLLQQLLT] | competed
